The values below come from publication PMC8162437 (Chemical Science, 2020).

Some peptides are written in HELM: one residue between dots, names in brackets for other building blocks, links after the first $.

The nature of the series: general procedure: Fmoc solid-phase peptide synthesis; rink amide resin (P3Biosystems, 52001). The conditions noted are these: late stage modification step.

Take H-MEVGWYRSPFSRVVHLYRNGK-OH: the step yield (RP-HPLC with internal standard) was 18%.
On the same count and under the same terms, in the case of H-DRVYIHPFHL-OH it was 20%.
In turn, H-RPKPQQWFWLL-NH2 came in with a step yield (RP-HPLC with internal standard) of 45%.
For H-RPPGFSPFR-OH, the step yield (RP-HPLC with internal standard) worked out at 36%.
With arylated bradykinin (H-RPPGFSPFR-OH), the step yield (isolated, bis-TFA salt) is reported as 42%.
Take “PEPTIDE1{[MeNHSO2Ph-Val].Y.I.H.P.F}$$$$V2.0”: the step yield (RP-HPLC with internal standard) was 97% and the step yield (isolated, TFA salt) turned out to be 68%.
